# Reference: paper PMC6004054
# No constants are given. Whether binding was seen depends on the method and setting. In cells and extracts the contact can be indirect. Some entries that bind do so weakly or less than the wild type. Where a sequence is shown, tags or fusion partners need not be part of it.
# B1: SLFN14(WT)-GFP (protein, UniProt P0C7P3 1-912)
# chain: MESLKTDTEMPYPEVIVDVGRVIFGEENRKKMTNSCLKRSENSRIIRAICALLNSGGGVIKAEIDDKTYSYQCHGLGQDLETSFQKLLPSGSQKYLDYMQQGHNLLIFVKSWSPDVFSLPLRICSLRSNLYRRDVTSAINLSASSALELLREKGFRAQRGRPRVKKLHPQQVLNRCIQEEEDMRILASEFFKKDKLMYKEKLNFTESTHVEFKRFTTKKVIPRIKEMLPHYVSAFANTQGGYVLIGVDDKSKEVVGCKWEKVNPDLLKKEIENCIEKLPTFHFCCEKPKVNFTTKILNVYQKDVLDGYVCVIQVEPFCCVVFAEAPDSWIMKDNSVTRLTAEQWVVMMLDTQSAPPSLVTDYNSCLISSASSARKSPGYPIKVHKFKEALQRHLFPVTQEEVQFKPESLCKKLFSDHKELEGLMKTLIHPCSQGIVIFSRSWAGDVGFRKEQNVLCDALLIAVNSPVVLYTILIDPNWPGGLEYARNTAHQLKQKLQTVGGYTGKVCIIPRLIHLSSTQSRPGEIPLRYPRSYRLADEEEMEDLLQALVVVSLSSRSLLSDQMGCEFFNLLIMEQSQLLSESLQKTRELFIYCFPGVRKTALAIKIMEKIKDLFHCKPKEILYVCESDSLKDFVTQQTTCQAVTRKTFMQGEFLKIKHIVMDETENFCSKYGNWYMKAKNITHPKAKGTGSENLHHGILWLFLDPFQIHHADVNGLPPPSAQFPRKTITSGIHCALEIAKVMKEEMKRIKENPPSNMSPDTLALFSETAYEEATCAQALPGVCETKTNLTTEQIANYVARKCHSLFQCGYLPKDIAILCRRGEDRGRYRLALLKAMELIETHRPSEVVFSPATGVWGSHIVLDSIQQFSGLERTVVFGLSPECDQSEEFHKLCFASRAIKHLYLLYEKRAAY
# B2: SLFN14(K218E)-GFP (protein, UniProt P0C7P3 1-912)
# chain: MESLKTDTEMPYPEVIVDVGRVIFGEENRKKMTNSCLKRSENSRIIRAICALLNSGGGVIKAEIDDKTYSYQCHGLGQDLETSFQKLLPSGSQKYLDYMQQGHNLLIFVKSWSPDVFSLPLRICSLRSNLYRRDVTSAINLSASSALELLREKGFRAQRGRPRVKKLHPQQVLNRCIQEEEDMRILASEFFKKDKLMYKEKLNFTESTHVEFKRFTTEKVIPRIKEMLPHYVSAFANTQGGYVLIGVDDKSKEVVGCKWEKVNPDLLKKEIENCIEKLPTFHFCCEKPKVNFTTKILNVYQKDVLDGYVCVIQVEPFCCVVFAEAPDSWIMKDNSVTRLTAEQWVVMMLDTQSAPPSLVTDYNSCLISSASSARKSPGYPIKVHKFKEALQRHLFPVTQEEVQFKPESLCKKLFSDHKELEGLMKTLIHPCSQGIVIFSRSWAGDVGFRKEQNVLCDALLIAVNSPVVLYTILIDPNWPGGLEYARNTAHQLKQKLQTVGGYTGKVCIIPRLIHLSSTQSRPGEIPLRYPRSYRLADEEEMEDLLQALVVVSLSSRSLLSDQMGCEFFNLLIMEQSQLLSESLQKTRELFIYCFPGVRKTALAIKIMEKIKDLFHCKPKEILYVCESDSLKDFVTQQTTCQAVTRKTFMQGEFLKIKHIVMDETENFCSKYGNWYMKAKNITHPKAKGTGSENLHHGILWLFLDPFQIHHADVNGLPPPSAQFPRKTITSGIHCALEIAKVMKEEMKRIKENPPSNMSPDTLALFSETAYEEATCAQALPGVCETKTNLTTEQIANYVARKCHSLFQCGYLPKDIAILCRRGEDRGRYRLALLKAMELIETHRPSEVVFSPATGVWGSHIVLDSIQQFSGLERTVVFGLSPECDQSEEFHKLCFASRAIKHLYLLYEKRAAY
# B3: SLFN14(K219N)-GFP (protein, UniProt P0C7P3 1-912)
# chain: MESLKTDTEMPYPEVIVDVGRVIFGEENRKKMTNSCLKRSENSRIIRAICALLNSGGGVIKAEIDDKTYSYQCHGLGQDLETSFQKLLPSGSQKYLDYMQQGHNLLIFVKSWSPDVFSLPLRICSLRSNLYRRDVTSAINLSASSALELLREKGFRAQRGRPRVKKLHPQQVLNRCIQEEEDMRILASEFFKKDKLMYKEKLNFTESTHVEFKRFTTKNVIPRIKEMLPHYVSAFANTQGGYVLIGVDDKSKEVVGCKWEKVNPDLLKKEIENCIEKLPTFHFCCEKPKVNFTTKILNVYQKDVLDGYVCVIQVEPFCCVVFAEAPDSWIMKDNSVTRLTAEQWVVMMLDTQSAPPSLVTDYNSCLISSASSARKSPGYPIKVHKFKEALQRHLFPVTQEEVQFKPESLCKKLFSDHKELEGLMKTLIHPCSQGIVIFSRSWAGDVGFRKEQNVLCDALLIAVNSPVVLYTILIDPNWPGGLEYARNTAHQLKQKLQTVGGYTGKVCIIPRLIHLSSTQSRPGEIPLRYPRSYRLADEEEMEDLLQALVVVSLSSRSLLSDQMGCEFFNLLIMEQSQLLSESLQKTRELFIYCFPGVRKTALAIKIMEKIKDLFHCKPKEILYVCESDSLKDFVTQQTTCQAVTRKTFMQGEFLKIKHIVMDETENFCSKYGNWYMKAKNITHPKAKGTGSENLHHGILWLFLDPFQIHHADVNGLPPPSAQFPRKTITSGIHCALEIAKVMKEEMKRIKENPPSNMSPDTLALFSETAYEEATCAQALPGVCETKTNLTTEQIANYVARKCHSLFQCGYLPKDIAILCRRGEDRGRYRLALLKAMELIETHRPSEVVFSPATGVWGSHIVLDSIQQFSGLERTVVFGLSPECDQSEEFHKLCFASRAIKHLYLLYEKRAAY
# B4: SLFN14(V220D)-GFP (protein, UniProt P0C7P3 1-912)
# chain: MESLKTDTEMPYPEVIVDVGRVIFGEENRKKMTNSCLKRSENSRIIRAICALLNSGGGVIKAEIDDKTYSYQCHGLGQDLETSFQKLLPSGSQKYLDYMQQGHNLLIFVKSWSPDVFSLPLRICSLRSNLYRRDVTSAINLSASSALELLREKGFRAQRGRPRVKKLHPQQVLNRCIQEEEDMRILASEFFKKDKLMYKEKLNFTESTHVEFKRFTTKKDIPRIKEMLPHYVSAFANTQGGYVLIGVDDKSKEVVGCKWEKVNPDLLKKEIENCIEKLPTFHFCCEKPKVNFTTKILNVYQKDVLDGYVCVIQVEPFCCVVFAEAPDSWIMKDNSVTRLTAEQWVVMMLDTQSAPPSLVTDYNSCLISSASSARKSPGYPIKVHKFKEALQRHLFPVTQEEVQFKPESLCKKLFSDHKELEGLMKTLIHPCSQGIVIFSRSWAGDVGFRKEQNVLCDALLIAVNSPVVLYTILIDPNWPGGLEYARNTAHQLKQKLQTVGGYTGKVCIIPRLIHLSSTQSRPGEIPLRYPRSYRLADEEEMEDLLQALVVVSLSSRSLLSDQMGCEFFNLLIMEQSQLLSESLQKTRELFIYCFPGVRKTALAIKIMEKIKDLFHCKPKEILYVCESDSLKDFVTQQTTCQAVTRKTFMQGEFLKIKHIVMDETENFCSKYGNWYMKAKNITHPKAKGTGSENLHHGILWLFLDPFQIHHADVNGLPPPSAQFPRKTITSGIHCALEIAKVMKEEMKRIKENPPSNMSPDTLALFSETAYEEATCAQALPGVCETKTNLTTEQIANYVARKCHSLFQCGYLPKDIAILCRRGEDRGRYRLALLKAMELIETHRPSEVVFSPATGVWGSHIVLDSIQQFSGLERTVVFGLSPECDQSEEFHKLCFASRAIKHLYLLYEKRAAY
# Biological target: T1, SLFN14(WT)-myc (human) (UniProt P0C7P3)
# T1 sequence: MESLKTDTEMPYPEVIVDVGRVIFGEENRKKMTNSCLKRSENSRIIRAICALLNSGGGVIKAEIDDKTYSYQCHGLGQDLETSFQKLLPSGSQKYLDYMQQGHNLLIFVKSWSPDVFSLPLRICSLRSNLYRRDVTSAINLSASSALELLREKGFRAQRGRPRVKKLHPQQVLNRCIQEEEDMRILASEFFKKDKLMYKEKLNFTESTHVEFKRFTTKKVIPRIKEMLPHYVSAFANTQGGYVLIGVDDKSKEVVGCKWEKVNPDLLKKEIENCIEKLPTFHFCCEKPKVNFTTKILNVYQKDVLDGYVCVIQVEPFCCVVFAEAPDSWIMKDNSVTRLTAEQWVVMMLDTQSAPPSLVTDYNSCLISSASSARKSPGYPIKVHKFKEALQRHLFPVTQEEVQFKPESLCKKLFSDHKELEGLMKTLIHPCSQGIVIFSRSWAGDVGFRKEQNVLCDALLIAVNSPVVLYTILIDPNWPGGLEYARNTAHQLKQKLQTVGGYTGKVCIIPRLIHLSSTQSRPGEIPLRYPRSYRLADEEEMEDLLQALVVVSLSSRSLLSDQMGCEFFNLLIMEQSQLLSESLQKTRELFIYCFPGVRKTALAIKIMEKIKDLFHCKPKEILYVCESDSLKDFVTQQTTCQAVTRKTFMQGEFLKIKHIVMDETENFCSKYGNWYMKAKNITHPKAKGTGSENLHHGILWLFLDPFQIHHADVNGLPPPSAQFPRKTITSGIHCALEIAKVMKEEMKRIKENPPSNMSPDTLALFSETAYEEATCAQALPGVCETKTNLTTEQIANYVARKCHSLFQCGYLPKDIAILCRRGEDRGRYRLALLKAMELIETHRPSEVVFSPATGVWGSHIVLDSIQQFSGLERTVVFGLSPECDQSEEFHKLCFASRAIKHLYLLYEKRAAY
# Assay: co-IP; HEK293T cells coexpressing SLFN14(WT)-myc and SLFN14(WT/mut)-GFP for 48 h; lysates precleared, anti-myc antibody with Protein G Sepharose overnight at 4°C; IP lysates analysed by Western blot
row,Binder,binding
1,B1,binds
2,B2,binds
3,B3,binds
4,B4,binds
